Measured values published in patent US20250051409A1, “MODULATORS OF PHOSPHATIDYLSERlNE DECARBOXYLASE AND USE THEREOF” (THE NATIONAL INSTITUTE FOR BIOTECHNOLOGY IN THE NEGEV LTD., priority 2021, published 2025).
No constants are given. Whether binding was seen depends on the method and setting. Binding seen in cells or lysates may run through a third protein. Some results given as binding are weak or reduced against the parent protein; the word gives no strength.

Tests used:
[1] = molecular target: T1, PSD, endogenous, in A549 cells (human) (UniProt B4DPS3); assay: in situ proximity ligation assay in A549 cells
T1 sequence: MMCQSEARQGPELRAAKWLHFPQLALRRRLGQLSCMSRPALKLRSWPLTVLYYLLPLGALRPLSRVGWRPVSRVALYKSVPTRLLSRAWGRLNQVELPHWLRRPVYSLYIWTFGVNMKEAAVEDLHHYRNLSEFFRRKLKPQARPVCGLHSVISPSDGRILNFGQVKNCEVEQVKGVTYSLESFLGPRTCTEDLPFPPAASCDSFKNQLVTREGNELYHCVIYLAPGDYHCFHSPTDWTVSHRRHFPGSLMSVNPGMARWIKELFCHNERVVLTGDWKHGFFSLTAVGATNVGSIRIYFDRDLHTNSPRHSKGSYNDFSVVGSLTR

[2] = molecular target: T1, PSD, endogenous, in A549 cells (human); assay: in situ proximity ligation assay in A549 cells (figure legend)

B1: SMAC/Diablo, endogenous, in A549 cells and A549 xenograft tumor sections (protein, human, UniProt Q9NR28 56-239, looked up)
chain: AVPIAQKSEPHSLSSEALMRRAVSLVTDSTSTFLSQTTYALIEAITEYTKAVYTLTSLYRQYTSLLGKMNSEEEDEVWQVIIGARAEMTSKHQEYLKLETTWMTAVGLSEMAAEAAYQTGADQASITARNHIQLVKLQVEEVHQLSRKAETKLAEAQIEELRQKTQEEGEERAESEQEAYLRED
With B1 the binding [1] was “binds” and the binding [2] was “binds”.
